According to PMC11128410:
No constants are given. Whether binding was seen depends on the method and setting. In cells and extracts the contact can be indirect. A result given as binding can be weak or reduced; the word gives no strength.

The chains behind the UniProt entries cited, without tags or fusion partners. Where a name states a change or a piece, a line headed by the entry shows the natural chain unless it says otherwise.
UniProt O94762: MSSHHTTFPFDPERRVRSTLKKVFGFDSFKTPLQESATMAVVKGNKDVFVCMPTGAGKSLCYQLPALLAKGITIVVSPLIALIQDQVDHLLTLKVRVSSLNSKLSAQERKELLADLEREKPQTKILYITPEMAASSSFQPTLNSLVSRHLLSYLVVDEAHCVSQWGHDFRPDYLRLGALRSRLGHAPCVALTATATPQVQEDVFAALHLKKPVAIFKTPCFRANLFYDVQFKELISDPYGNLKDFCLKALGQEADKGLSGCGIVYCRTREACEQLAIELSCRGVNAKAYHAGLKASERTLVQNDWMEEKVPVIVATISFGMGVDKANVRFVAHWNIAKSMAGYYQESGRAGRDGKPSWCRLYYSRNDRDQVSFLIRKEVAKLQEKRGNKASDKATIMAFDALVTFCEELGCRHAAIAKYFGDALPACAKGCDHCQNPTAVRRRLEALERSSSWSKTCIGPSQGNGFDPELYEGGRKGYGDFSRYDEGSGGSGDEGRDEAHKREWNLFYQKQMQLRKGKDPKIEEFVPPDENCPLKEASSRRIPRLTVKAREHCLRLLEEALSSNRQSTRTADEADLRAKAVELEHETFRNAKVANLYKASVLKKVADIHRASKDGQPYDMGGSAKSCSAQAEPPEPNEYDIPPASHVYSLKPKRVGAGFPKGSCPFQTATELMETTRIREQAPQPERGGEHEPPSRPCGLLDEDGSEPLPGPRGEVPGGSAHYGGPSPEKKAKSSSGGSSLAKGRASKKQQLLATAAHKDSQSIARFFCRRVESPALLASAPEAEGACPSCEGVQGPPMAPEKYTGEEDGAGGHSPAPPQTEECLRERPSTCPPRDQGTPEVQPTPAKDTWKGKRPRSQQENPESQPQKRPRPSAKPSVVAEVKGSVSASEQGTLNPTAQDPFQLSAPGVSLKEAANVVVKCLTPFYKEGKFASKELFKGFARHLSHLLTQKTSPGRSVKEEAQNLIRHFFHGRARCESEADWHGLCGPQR
UniProt P04050: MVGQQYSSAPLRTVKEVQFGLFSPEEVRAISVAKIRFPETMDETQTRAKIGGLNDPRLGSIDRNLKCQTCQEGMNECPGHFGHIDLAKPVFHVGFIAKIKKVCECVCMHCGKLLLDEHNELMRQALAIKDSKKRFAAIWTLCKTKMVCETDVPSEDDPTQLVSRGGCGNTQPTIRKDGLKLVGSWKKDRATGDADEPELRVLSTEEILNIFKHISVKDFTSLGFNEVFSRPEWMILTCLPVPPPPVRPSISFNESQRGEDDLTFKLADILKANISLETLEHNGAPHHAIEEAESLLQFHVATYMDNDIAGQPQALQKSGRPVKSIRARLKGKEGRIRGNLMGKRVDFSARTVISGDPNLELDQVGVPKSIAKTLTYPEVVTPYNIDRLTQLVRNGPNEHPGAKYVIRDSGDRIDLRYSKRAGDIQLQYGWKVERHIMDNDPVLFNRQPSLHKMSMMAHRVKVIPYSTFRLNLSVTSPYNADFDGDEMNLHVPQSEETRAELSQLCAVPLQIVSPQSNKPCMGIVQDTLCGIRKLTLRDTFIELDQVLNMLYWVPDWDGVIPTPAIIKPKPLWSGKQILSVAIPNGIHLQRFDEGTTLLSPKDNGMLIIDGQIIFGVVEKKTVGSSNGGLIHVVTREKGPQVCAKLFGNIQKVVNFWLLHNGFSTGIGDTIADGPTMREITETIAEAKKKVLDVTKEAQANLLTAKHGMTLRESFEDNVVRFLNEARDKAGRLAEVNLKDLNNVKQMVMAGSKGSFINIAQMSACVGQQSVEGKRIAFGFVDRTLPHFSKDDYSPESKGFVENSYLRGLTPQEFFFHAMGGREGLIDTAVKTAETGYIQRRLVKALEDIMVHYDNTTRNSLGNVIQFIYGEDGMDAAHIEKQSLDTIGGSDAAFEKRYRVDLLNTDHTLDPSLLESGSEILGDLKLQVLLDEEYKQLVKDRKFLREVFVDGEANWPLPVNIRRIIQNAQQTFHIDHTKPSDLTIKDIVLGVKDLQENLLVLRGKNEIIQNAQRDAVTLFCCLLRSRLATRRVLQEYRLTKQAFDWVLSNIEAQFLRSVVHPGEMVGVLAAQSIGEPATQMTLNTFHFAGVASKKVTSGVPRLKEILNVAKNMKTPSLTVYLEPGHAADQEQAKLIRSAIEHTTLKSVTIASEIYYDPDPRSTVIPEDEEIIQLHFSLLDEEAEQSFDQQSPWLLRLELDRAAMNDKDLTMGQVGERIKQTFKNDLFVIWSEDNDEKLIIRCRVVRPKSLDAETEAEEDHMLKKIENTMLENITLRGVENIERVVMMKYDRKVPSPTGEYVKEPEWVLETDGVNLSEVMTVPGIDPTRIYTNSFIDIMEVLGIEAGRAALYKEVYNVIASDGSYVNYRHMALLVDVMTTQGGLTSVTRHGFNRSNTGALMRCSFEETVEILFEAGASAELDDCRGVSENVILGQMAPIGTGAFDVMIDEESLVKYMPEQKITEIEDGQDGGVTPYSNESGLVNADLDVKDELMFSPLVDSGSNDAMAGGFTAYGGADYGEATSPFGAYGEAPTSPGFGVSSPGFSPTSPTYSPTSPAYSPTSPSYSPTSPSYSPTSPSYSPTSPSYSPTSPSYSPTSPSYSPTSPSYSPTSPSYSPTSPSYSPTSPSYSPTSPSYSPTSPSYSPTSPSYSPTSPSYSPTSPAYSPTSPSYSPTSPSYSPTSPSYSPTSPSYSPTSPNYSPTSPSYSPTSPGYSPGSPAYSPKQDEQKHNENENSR

Biological target: human RECQL5-ID mutant, FLAG-tagged (GAL::RECQL5-ID) (human) (UniProt O94762)
Assay: co-IP; whole cell extracts of yeast expressing FLAG-tagged RECQL5 constructs from the GAL1 promoter (galactose 4 h); precipitation with FLAG antibody on Dynabeads Protein A, 3 h at 4 °C; lysis buffer 50 mM Tris HCl pH 7.5, 100 mM NaCl, 1.5 mM MgCl2, NP40, DTT; blot for Rpb1

binding: binds
Substance: Rpb1 subunit of yeast RNA polymerase II (from UniProt P04050 1-1733)
